Experimental data published in publication PMC10268282, “Activator-induced conformational changes regulate division-associated peptidoglycan amidases” (Proceedings of the National Academy of Sciences of the …, 2023).
Where a chain is given by its changes, count along the chain named. Names may count otherwise. These are yes or no findings as the source states them, for the method shown. Binding can be weak; no strength is given. Sequences can lack the tags named with a protein.

Sequences of proteins named here, by UniProt entry; tags and fusion partners are left off. A change or cut given only in a name is not applied to a line headed by its entry.
UniProt P37690: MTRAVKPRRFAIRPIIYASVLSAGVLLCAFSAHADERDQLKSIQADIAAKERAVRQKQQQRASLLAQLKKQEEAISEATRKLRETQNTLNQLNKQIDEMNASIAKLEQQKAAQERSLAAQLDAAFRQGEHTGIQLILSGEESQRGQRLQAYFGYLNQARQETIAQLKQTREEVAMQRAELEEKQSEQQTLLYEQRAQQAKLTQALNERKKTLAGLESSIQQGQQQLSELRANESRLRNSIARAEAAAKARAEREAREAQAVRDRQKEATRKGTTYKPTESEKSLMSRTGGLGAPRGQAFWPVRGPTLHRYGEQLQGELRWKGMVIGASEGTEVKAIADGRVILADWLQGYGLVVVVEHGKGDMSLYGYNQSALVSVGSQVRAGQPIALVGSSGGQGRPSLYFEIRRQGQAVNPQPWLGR

B1: AmiA (wild type), bacterial 2-hybrid fusion (enzyme, UniProt P36548 35-289)
chain: KDELLKTSNGHSKPKAKKSGGKRVVVLDPGHGGIDTGAIGRNGSKEKHVVLAIAKNVRSILRNHGIDARLTRSGDTFIPLYDRVEIAHKHGADLFMSIHADGFTNPKAAGASVFALSNRGASSAMAKYLSERENRADEVAGKKATDKDHLLQQVLFDLVQTDTIKNSLTLGSHILKKIKPVHKLHSRNTEQAAFVVLKSPSVPSVLVETSFITNPEEERLLGTAAFRQKIATAIAEGVISYFHWFDNQKAHSKKR
B2: AmiA L184K, bacterial 2-hybrid fusion (enzyme, UniProt P36548 35-289)
chain: B1 chain with L150K
B3: AmiA L185K, bacterial 2-hybrid fusion (enzyme, UniProt P36548 35-289)
chain: B1 chain with L151K
B4: AmiA V188K, bacterial 2-hybrid fusion (enzyme, UniProt P36548 35-289)
chain: B1 chain with V154K
B5: AmiA L189K, bacterial 2-hybrid fusion (enzyme, UniProt P36548 35-289)
chain: B1 chain with L155K
B6: AmiA L192K, bacterial 2-hybrid fusion (enzyme, UniProt P36548 35-289)
chain: B1 chain with L158K

What follows are binders tested against EnvC LytM domain, bacterial 2-hybrid fusion (E. coli) (UniProt P37690) (assay: two-hybrid; bacterial 2-hybrid (BACTH system), same agar plate photographed after 6 d at 20 °C).

| Binder | binding |
| --- | --- |
| B1 | binds |

What follows are binders tested against EnvC LytM domain, bacterial 2-hybrid fusion (E. coli) (UniProt P37690) (assay: two-hybrid; bacterial 2-hybrid (BACTH system), agar plate photographed after 4 d at 20 °C).

| Binder | binding |
| --- | --- |
| B1 | binds |
| B2 | no binding |
| B3 | no binding |
| B4 | no binding |
| B5 | no binding |
| B6 | no binding |
